Binding data for one substance are collected here from paper PMC11061751.

Sequences of proteins named here, by UniProt entry; tags and fusion partners are left off.
UniProt O60260: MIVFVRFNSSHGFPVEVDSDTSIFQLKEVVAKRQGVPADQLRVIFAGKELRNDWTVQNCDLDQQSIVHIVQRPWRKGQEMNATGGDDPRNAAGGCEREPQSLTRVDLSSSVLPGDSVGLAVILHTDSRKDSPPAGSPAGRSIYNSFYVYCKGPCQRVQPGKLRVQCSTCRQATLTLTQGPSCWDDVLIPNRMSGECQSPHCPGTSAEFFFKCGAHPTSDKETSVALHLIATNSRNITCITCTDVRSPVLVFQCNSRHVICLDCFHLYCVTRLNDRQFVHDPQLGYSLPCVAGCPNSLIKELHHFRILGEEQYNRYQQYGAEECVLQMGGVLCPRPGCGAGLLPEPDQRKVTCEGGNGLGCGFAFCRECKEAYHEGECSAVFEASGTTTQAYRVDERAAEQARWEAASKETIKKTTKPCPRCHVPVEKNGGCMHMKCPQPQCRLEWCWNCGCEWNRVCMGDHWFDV
UniProt Q86U44: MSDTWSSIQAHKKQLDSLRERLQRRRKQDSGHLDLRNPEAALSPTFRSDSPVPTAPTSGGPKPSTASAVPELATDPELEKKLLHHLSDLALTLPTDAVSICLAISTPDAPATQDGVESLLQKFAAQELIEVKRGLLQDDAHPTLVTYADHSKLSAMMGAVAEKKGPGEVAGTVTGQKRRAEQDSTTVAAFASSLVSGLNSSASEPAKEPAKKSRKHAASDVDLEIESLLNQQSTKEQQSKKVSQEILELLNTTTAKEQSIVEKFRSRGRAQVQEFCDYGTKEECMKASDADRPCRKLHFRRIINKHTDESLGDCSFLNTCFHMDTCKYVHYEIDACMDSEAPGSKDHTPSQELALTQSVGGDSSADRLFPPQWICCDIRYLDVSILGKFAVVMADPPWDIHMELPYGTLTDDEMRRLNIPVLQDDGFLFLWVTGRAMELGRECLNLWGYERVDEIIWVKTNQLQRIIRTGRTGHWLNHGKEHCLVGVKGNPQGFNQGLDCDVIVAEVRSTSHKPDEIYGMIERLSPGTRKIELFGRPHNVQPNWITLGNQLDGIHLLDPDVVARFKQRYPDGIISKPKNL

The experiment has as its target Flag-PRKN (UniProt O60260). Briefly: co-IP; HEK293 cells transfected with Flag-PRKN and Myc-METTL3 for 48 h; lysates in IP lysis buffer (10 mM Tris, 1% NP-40, 2 mM EDTA, 150 mM NaCl, pH 7.5) immunoprecipitated with anti-Flag (IgG as control), 4 °C overnight, protein A/G beads; Western blotting. On the technique in general: In western blotting, separated proteins are transferred to a membrane and probed.

These are yes or no findings as the source states them, for the method shown. In cells and extracts the contact can be indirect. Some results given as binding are weak or reduced against the parent protein; the word gives no strength.

On to “Myc-METTL3 (from UniProt Q86U44 1-580) (enzyme)”, for which the binding entry is “binds”.
